# Laboratory results taken from the supplement of paper PMC6658780.
# Structures can show the parent of a compound that is named as a salt. ± gives the standard deviation of the averaged measurements. The list shows a part of the results. Repeats in this data set agree poorly, so a single value says little.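 The A. baumannii strains are clinical isolates chosen because they resist the partner antibiotic, and the screen looks for drugs that restore that antibiotic's effect. The reading at the start of incubation is subtracted to remove background from coloured compounds.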
# Tested on: Acinetobacter baumannii WP-487
# Assay: percent growth inhibition of drug + antibiotic vs DMSO control; higher = more growth inhibition
# Conditions: antibiotic (0.125x MIC): colistin; 7 µM
# Experimental: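 Prestwick drugs tested at 20 uM and 7 uM with an antibiotic at 0.125x MIC (16 mg/L when MIC >128 mg/L) in cation-adjusted Mueller-Hinton broth, 384-well plates, duplicate runs on different days. Percent growth inhibition was computed from OD600 (24 h minus 0 h) relative to DMSO-only wells. Drug + 0.1% DMSO (no antibiotic) wells are also given. Only hits (max corrected inhibition > mean + 3SD) are listed. A. baumannii: NCTC-13301 was used for MEM/CIP/GEN/TGC and WP-487 for colistin. Duplicates with colistin are strongly discordant (run 2 near 100% for most drugs).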
row,Compound,percent growth inhibition [%]
1,OCCN1CCN(CCCN2c3ccccc3Sc3ccc(Cl)cc32)CC1 [Perphenazine],16.7 ± 16
2,CN(C)CCCN1c2ccccc2Sc2ccc(C(F)(F)F)cc21 [Triflupromazine hydrochloride],2.89 ± 5.7
3,CC(C)(C)CC(C)(C)c1ccc(OCCOCC[N+](C)(C)Cc2ccccc2)cc1 [Benzethonium chloride],56.1 ± 51
4,O=c1[nH]cnc2c1ncn2[C@H]1CC[C@@H](CO)O1 [Didanosine],10.2 ± 13
5,C=C1/C(=C\C=C2/CCC[C@]3(C)[C@@H]([C@H](C)/C=C/[C@@H](O)C4CC4)CC[C@@H]23)C[C@@H](O)C[C@@H]1O [Calcipotriene],37.6 ± 65
6,Clc1ccc(C(Cn2ccnc2)OCc2csc3c(Cl)cccc23)c(Cl)c1 (stereo not given) [Sertaconazole nitrate],60.9 ± 46
7,O=C1NCCN1c1ncc([N+](=O)[O-])s1 [Niridazole],17.4 ± 29
8,Clc1ccc(COC(Cn2ccnc2)c2ccc(Cl)cc2Cl)cc1 (stereo not given) [Econazole nitrate],49.8 ± 58
9,CCc1oc2ccccc2c1C(=O)c1cc(Br)c(O)c(Br)c1 [Benzbromarone],51.1 ± 52
10,Cc1cc2cc3c(C)cc(=O)oc3c(C)c2o1 [Trioxsalen],-2.67 ± 2.3
11,COCCOC(=O)C1=C(C)NC(C)=C(C(=O)OC/C=C/c2ccccc2)C1c1cccc([N+](=O)[O-])c1 (stereo not given) [Cilnidipine],54.1 ± 53
12,CC(C)(C)C(=O)OCOC(=O)[C@@H]1N2C(=O)[C@@H](/N=C/N3CCCCCC3)[C@H]2SC1(C)C [Pivmecillinam hydrochloride],26 ± 28
13,CC(C)COCC(CN(Cc1ccccc1)c1ccccc1)N1CCCC1 (stereo not given) [Bepridil hydrochloride],3.43 ± 3.1
14,CN1CCN(CCCN2c3ccccc3Sc3ccc(C(F)(F)F)cc32)CC1 [Trifluoperazine dihydrochloride],52.9 ± 54
15,COC(=O)C1=C(C)NC(C)=C(C(=O)OC2CCCN(Cc3ccccc3)C2)C1c1cccc([N+](=O)[O-])c1 (stereo not given) [Benidipine hydrochloride],57.2 ± 61
16,CC(=O)O[C@H]1C[C@@]2(C)[C@@H](C[C@@H](O)[C@H]3[C@@]4(C)CC[C@@H](O)[C@@H](C)[C@@H]4CC[C@@]32C)/C1=C(\CCC=C(C)C)C(=O)O [Fusidic acid sodium salt],52.6 ± 54
17,CN1CCN(CCCN2c3ccccc3Sc3ccc(Cl)cc32)CC1 [Prochlorperazine dimaleate],46.3 ± 62
18,Fc1ccc(C(c2ccc(F)cc2)N2CCN(C/C=C/c3ccccc3)CC2)cc1 [Flunarizine dihydrochloride],37.1 ± 50
19,"Cc1cn([C@H]2C[C@H](N=[N+]=[N-])[C@@H](CO)O2)c(=O)[nH]c1=O [Zidovudine, AZT]",45.8 ± 60
20,CCOC(=O)OC(C)OC(=O)[C@@H]1N2C(=O)[C@@H](NC(=O)[C@H](N)c3ccccc3)[C@H]2SC1(C)C (stereo not given in full) [Bacampicillin hydrochloride],-0.292 ± 6.3

# Same assay, conditions: antibiotic (0.125x MIC): colistin; 20 µM
row,Compound,percent growth inhibition [%]
1,OCCN1CCN(CCCN2c3ccccc3Sc3ccc(Cl)cc32)CC1 [Perphenazine],57 ± 61
2,CN(C)CCCN1c2ccccc2Sc2ccc(C(F)(F)F)cc21 [Triflupromazine hydrochloride],58.8 ± 58
3,CC(C)(C)CC(C)(C)c1ccc(OCCOCC[N+](C)(C)Cc2ccccc2)cc1 [Benzethonium chloride],98.5 ± 1.9
4,O=c1[nH]cnc2c1ncn2[C@H]1CC[C@@H](CO)O1 [Didanosine],53.5 ± 65
5,C=C1/C(=C\C=C2/CCC[C@]3(C)[C@@H]([C@H](C)/C=C/[C@@H](O)C4CC4)CC[C@@H]23)C[C@@H](O)C[C@@H]1O [Calcipotriene],5.73 ± 20
6,Clc1ccc(C(Cn2ccnc2)OCc2csc3c(Cl)cccc23)c(Cl)c1 (stereo not given) [Sertaconazole nitrate],62.9 ± 44
7,O=C1NCCN1c1ncc([N+](=O)[O-])s1 [Niridazole],52.4 ± 66
8,Clc1ccc(COC(Cn2ccnc2)c2ccc(Cl)cc2Cl)cc1 (stereo not given) [Econazole nitrate],52 ± 56
9,CCc1oc2ccccc2c1C(=O)c1cc(Br)c(O)c(Br)c1 [Benzbromarone],52.6 ± 54
10,Cc1cc2cc3c(C)cc(=O)oc3c(C)c2o1 [Trioxsalen],55.9 ± 62
11,COCCOC(=O)C1=C(C)NC(C)=C(C(=O)OC/C=C/c2ccccc2)C1c1cccc([N+](=O)[O-])c1 (stereo not given) [Cilnidipine],54.6 ± 53
12,CC(C)(C)C(=O)OCOC(=O)[C@@H]1N2C(=O)[C@@H](/N=C/N3CCCCCC3)[C@H]2SC1(C)C [Pivmecillinam hydrochloride],49.9 ± 58
13,CC(C)COCC(CN(Cc1ccccc1)c1ccccc1)N1CCCC1 (stereo not given) [Bepridil hydrochloride],49.9 ± 71
14,CN1CCN(CCCN2c3ccccc3Sc3ccc(C(F)(F)F)cc32)CC1 [Trifluoperazine dihydrochloride],49.9 ± 58
15,COC(=O)C1=C(C)NC(C)=C(C(=O)OC2CCCN(Cc3ccccc3)C2)C1c1cccc([N+](=O)[O-])c1 (stereo not given) [Benidipine hydrochloride],21.7 ± 5.3
16,CC(=O)O[C@H]1C[C@@]2(C)[C@@H](C[C@@H](O)[C@H]3[C@@]4(C)CC[C@@H](O)[C@@H](C)[C@@H]4CC[C@@]32C)/C1=C(\CCC=C(C)C)C(=O)O [Fusidic acid sodium salt],54.5 ± 53
17,CN1CCN(CCCN2c3ccccc3Sc3ccc(Cl)cc32)CC1 [Prochlorperazine dimaleate],52.8 ± 54
18,Fc1ccc(C(c2ccc(F)cc2)N2CCN(C/C=C/c3ccccc3)CC2)cc1 [Flunarizine dihydrochloride],44.1 ± 62
19,"Cc1cn([C@H]2C[C@H](N=[N+]=[N-])[C@@H](CO)O2)c(=O)[nH]c1=O [Zidovudine, AZT]",51.7 ± 52
20,CCOC(=O)OC(C)OC(=O)[C@@H]1N2C(=O)[C@@H](NC(=O)[C@H](N)c3ccccc3)[C@H]2SC1(C)C (stereo not given in full) [Bacampicillin hydrochloride],66.9 ± 28
